According to PubChem BioAssay AID493014 (National Center for Advancing Translational Sciences (NCATS), 2011):
The other results are listed elsewhere or left out. Further columns of the screen follow, without active or inactive calls. The list favours compounds with an active or inconclusive main result. Potencies come from curve fits of mixed quality, noted in brackets.

Experiment: qHTS Assay to Find Inhibitors of Chronic Active B-Cell Receptor Signaling
Settings: ABC-DLBCL IkBa-CBG/CBR reporter, luminescence ratio (green luciferase fused to IkBa over red control in TMD8 lymphoma cells), 4 h
Procedure, shortened: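 TMD8 ABC-DLBCL cells carrying doxycycline-inducible green luciferase fused to IkappaBalpha plus unfused red luciferase were exposed to compounds (up to 46 uM) for 4 hrs at 37C. Activity came from the overlap-corrected green/red luminescence ratio.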

[1] = measured here: CBR red luminescence, cell number
[2] = measured here: IkBa-CBG green luminescence

SMILES	AC50 [1]	AC50 [2]
O=C(NCCSCc1ccccc1)c1ccccc1	2.91 µM [falling, single point]	–
CN(CC(=O)Nc1ccccc1C(=O)N1CCCC1)S(=O)(=O)c1ccc(Cl)cc1	0.146 µM [falling, full curve, poor fit]	–
COC(=O)Cc1ccc(NC(=S)NCC(C)C)cc1	1.46 µM [rising, partial curve, poor fit]	–
CCCc1cc(=O)[nH]c(SCC(=O)Nc2ccc3c(c2)CCC3)n1	11.2 µM [rising, partial curve, poor fit]	–
COc1ccc(N2C(=O)CSC23CCC(C(C)(C)C)CC3)cc1 (centres undefined)	6.31 µM [falling, single point]	–
Cn1ccnc1SCC(=O)Nc1cccc(C(F)(F)F)c1	0.82 µM [rising, full curve, poor fit]	–
CCN1/C(=C/C=C/c2oc3ccc(-c4ccccc4)cc3[n+]2CC)Oc2ccc(-c3ccccc3)cc21	2.82 µM [falling, full curve]	11.2 µM [rising, partial curve, poor fit]
COC(=O)c1c(NC(=O)/C=C/C(=O)O)sc(C)c1-c1ccc(C(C)C)cc1	10 µM [falling, single point]	–
COc1cccc(/C=N/NC(=O)c2c(C)nc3ccc(Br)cn23)c1O	7.94 µM [falling, partial curve, poor fit]	–
CCn1c(SCC(=O)NC2CCCCC2)nnc1-c1cc2cccc(OC)c2o1	8.91 µM [falling, single point]	–
CN(C)c1ccc(/C=C/C(=O)c2ccccc2O)cc1	5.01 µM [falling, full curve]	–
COc1ccc(-c2cc(C(=O)NCc3cccnc3)no2)cc1OC	10 µM [falling, partial curve]	–
Cc1ccc(NC(=O)CSc2ncc(S(=O)(=O)c3ccccc3)c(=O)[nH]2)cc1C	18.4 µM [falling, partial curve, poor fit]	23.1 µM [rising, partial curve, poor fit]
Cc1nnc(SCC(=O)NC(=O)Nc2ccc3c(c2)OCCO3)n1N	6.31 µM [falling, full curve]	–
COc1cc(OC)cc(C(=O)NNC(=O)c2ccccn2)c1	9.2 µM [falling, single point]	–
COc1cccc(NC(=O)c2ccc(-c3ccc([N+](=O)[O-])cc3)o2)c1	12.6 µM [falling, partial curve, poor fit]	–
COC(=O)c1sc2nc3c(cc2c1N)CCCC3	–	0.708 µM [rising, full curve]
O=C(NC(=O)N1CCN(c2ccc(F)cc2)CC1)c1ccccc1	14.6 µM [rising, partial curve, poor fit]	–
CCCSc1nnc(-c2ccccc2NC(=O)CC)c(=O)[nH]1	5.8 µM [rising, partial curve, poor fit]	–
O=C(O)/C=C/C(=O)Nc1ccc(OCc2ccccc2)cc1	0.447 µM [falling, full curve, poor fit]	–
COc1cc(CCC(=O)Nc2ncc(C)s2)cc(OC)c1OC	31.6 µM [falling, single point]	–

Two entries picked at random from those above, as already listed:
SMILES	AC50 [1]	AC50 [2]
COc1cc(OC)cc(C(=O)NNC(=O)c2ccccn2)c1	9.2 µM [falling, single point]	–
COc1ccc(-c2cc(C(=O)NCc3cccnc3)no2)cc1OC	10 µM [falling, partial curve]	–

Additional records

SMILES	AC50 [1]	AC50 [2]
CS(=O)(=O)N(CC(=O)Nc1ccc2c(c1)OCCO2)Cc1ccccc1	5.8 µM [rising, partial curve, poor fit]	–
O=C(COc1ccccc1)Nc1nnc(-c2ccco2)o1	12.6 µM [falling, partial curve, poor fit]	–
Oc1cccc(/C=N/NC(=S)Nc2cccnc2)c1O	25.9 µM [falling, single point]	–
CC(C)(C)C1CCc2c(sc(NC(=O)c3cccs3)c2C(N)=O)C1 (centres undefined)	20.6 µM [falling, partial curve, poor fit]	–
CN(C(=O)CSc1nc2cc(Cl)ccc2c(=O)n1Cc1ccco1)C1CCS(=O)(=O)C1 (centres undefined)	20 µM [falling, single point]	–
Cc1cc2c(Nc3ccc(O)cc3)ncnc2s1	4.47 µM [falling, partial curve, poor fit]	–
O=C(c1ccc2ccccc2c1)c1c[nH]cc1-c1ccccc1	3.66 µM [rising, partial curve, poor fit]	–
Cc1ccc(SCC(=O)OCC(=O)N(C)CC(=O)Nc2ccccc2Cl)cc1	23.1 µM [falling, single point]	–
S=c1oc(-c2ccncc2)nn1CCc1ccncc1	0.82 µM [rising, full curve, poor fit]	–
CC(=O)Nc1cccc(NC(=O)C(=O)NCC(c2ccco2)N2CCc3ccccc32)c1 (centres undefined)	16.4 µM [falling, partial curve, poor fit]	–
COC(=O)c1[nH]c2ccc(C)cc2c1NC(=O)CN1CCN(Cc2ccccc2)CC1	–	1.58 µM [falling, full curve, poor fit]
CCOc1ccccc1NC(=O)Cn1c(=O)oc2ccccc21	3.55 µM [falling, single point]	–
O=C(NNC(=O)c1ccccc1F)c1ccco1	1.41 µM [falling, full curve]	–
CCN1CCCC1CNC(=O)c1ccc2c(c1)NC(=O)/C(=C\c1ccc(C)cc1)S2 (centres undefined)	35.5 µM [falling, single point]	–
Cc1cc(Sc2nc(N(C)C)nc(N(C)C)n2)nc(Cl)n1	1.58 µM [rising, partial curve, poor fit]	–
O=C(COC(=O)COc1ccc(Cl)cc1Br)NCCC1=CCCCC1	29.1 µM [rising, single point]	–
COc1ccc(S(=O)(=O)NCCN2CCOCC2)c2ccccc12	35.5 µM [rising, single point]	–
CC(=O)Oc1c(I)cc(I)cc1C(=O)Nc1ccc(Cl)cc1	3.16 µM [falling, full curve]	–
Cc1ccc(NC(=O)CC(C)N2CCCC2)cc1 (centres undefined)	6.51 µM [rising, partial curve]	–
CCNc1nc2c(c(=O)n(C)c(=O)n2C)n1Cc1ccc(F)cc1	3.98 µM [falling, partial curve, poor fit]	4.47 µM [rising, full curve]
